Results reported in article PMC5487381, “Thioredoxin A Is Essential for Motility and Contributes to Host Infection of Listeria monocytogenes via Redox Interactions” (Frontiers in Cellular and Infection Microbiology, 2017).
Results are given in words; binding and its absence hold for the method and conditions named. Some entries that bind do so weakly or less than the wild type.

Sequences of proteins named here, by UniProt entry; tags and fusion partners are left off.
UniProt P22262: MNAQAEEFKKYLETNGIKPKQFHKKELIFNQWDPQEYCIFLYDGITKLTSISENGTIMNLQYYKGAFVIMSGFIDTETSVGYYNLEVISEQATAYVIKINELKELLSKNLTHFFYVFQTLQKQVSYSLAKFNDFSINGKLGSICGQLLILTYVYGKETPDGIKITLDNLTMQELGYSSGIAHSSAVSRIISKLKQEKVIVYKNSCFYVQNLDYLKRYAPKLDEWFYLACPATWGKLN

Target: PrfA, the central virulence regulator of Listeria (Listeria monocytogenes EGD-e) (UniProt P22262)
Experiment: ITC; TrxA, TrxAox or TrxA active-site mutants (80-200 uM) in the syringe, PrfA, MogR, GmaR or MogR and GmaR (8-20 uM) in the cuvette; 25 C; 25 mM Tris-HCl pH 7.5, 100 mM NaCl; 15 uL injections, 300 s spacing; 1:1 binding model; both purified

B1: oxidized forms of TrxA (TrxAox) (enzyme, UniProt P0A4L3 1-103)
chain: MVKEITDATFEQETSEGLVLTDFWATWCGPCRMVAPVLEEIQEERGEALKIVKMDVDENPETPGSFGVMSIPTLLIKKDGEVVETIIGYRPKEELDEVINKYV
modifications: oxidized form (residues not stated)
binding: binds weakly
